Data reported in the supplement of paper PMC4604168 (melanoma cell lines).
Some of the results follow. Single values are uncertain, as repeats are few or missing.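 Cells were imaged in 1,536-well plates, and nuclei stained with an antibody against cleaved PARP were counted against all DNA-stained nuclei to give the apoptosis fraction. Screening doses were chosen to leave most cells alive, and resting and induced cleaved-PARP levels differ strongly between cell lines.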

Each compound was assayed on COLO792 (assay: cleaved PARP positive nuclei fraction relative to DMSO control; melanoma cells; higher = more apoptosis). Settings: library dose: low library concentration; 72 h.

| SMILES | cleaved PARP positive nuclei fraction [%] |
| --- | --- |
| COc1cc([C@@H]2c3cc4c(cc3[C@@H](O[C@@H]3O[C@@H]5CO[C@@H](C)O[C@H]5[C@H](O)[C@H]3O)[C@H]3COC(=O)[C@H]23)OCO4)cc(OC)c1O [etoposide] + CN(NC(=O)CC(=O)NN(C)C(=S)c1ccccc1)C(=S)c1ccccc1 [STA4783] (first compound 0.02 µM, partner dose 0.006 µM) | 182 |
| O=C(Nc1cc(C(F)(F)F)cc(C(F)(F)F)c1)c1cc(Cl)ccc1O + O=C(Nc1cccc(Cl)c1)Nc1ncc(CCNc2ncnc3ccsc23)s1 [SNS314] (first compound 0.016 µM, partner dose 0.0008 µM) | 141 |
| Cc1cn(-c2cc(NC(=O)c3ccc(C)c(Nc4nccc(-c5cccnc5)n4)c3)cc(C(F)(F)F)c2)cn1 [nilotinib] + NC(=O)Nc1cc(-c2cccc(F)c2)sc1C(=O)N[C@H]1CCCNC1 [AZD7762] (first compound 0.2 µM, partner dose 0.02 µM) | 117 |
| Cc1cn(-c2cc(NC(=O)c3ccc(C)c(Nc4nccc(-c5cccnc5)n4)c3)cc(C(F)(F)F)c2)cn1 [nilotinib] + O=C(O)c1ccc(-c2c[nH]c3ncc(-c4ccccc4)cc23)cc1C1CCCC1 [GSK650394] (first compound 0.2 µM, partner dose 0.16 µM) | 103 |
| O=C(/C=C/c1cccnc1)NCCCCC1CCN(C(=O)c2ccccc2)CC1 + CC(C)(C)c1cnc(CSc2cnc(NC(=O)C3CCNCC3)s2)o1 [SNS-032] (first compound 0.01 µM, partner dose 0.01 µM) | 401 |
| Cc1cn(-c2cc(NC(=O)c3ccc(C)c(Nc4nccc(-c5cccnc5)n4)c3)cc(C(F)(F)F)c2)cn1 [nilotinib] + O=C(CCCCCCC(=O)Nc1ccccc1)NO [vorinostat] (first compound 0.2 µM, partner dose 0.08 µM) | 104 |
| N#CC[C@H](C1CCCC1)n1cc(-c2ncnc3[nH]ccc23)cn1 [ruxolitinib] + O=C(O)c1ccc(-c2c[nH]c3ncc(-c4ccccc4)cc23)cc1C1CCCC1 [GSK650394] (first compound 1 µM, partner dose 0.16 µM) | 189 |
| O=C(Nc1cc(C(F)(F)F)cc(C(F)(F)F)c1)c1cc(Cl)ccc1O + CO[C@@H]1[C@H](N(C)C(=O)c2ccccc2)C[C@H]2O[C@]1(C)n1c3ccccc3c3c4c(c5c6ccccc6n2c5c31)C(=O)NC4 [Midostaurin] (first compound 0.016 µM, partner dose 0.08 µM) | 166 |
| N#CC[C@H](C1CCCC1)n1cc(-c2ncnc3[nH]ccc23)cn1 [ruxolitinib] + Cc1ccc(NC(=O)c2cccc(N(C)C)c2)cc1NC(=O)c1ccc(O)cc1 [ZM336372] (first compound 1 µM, partner dose 2 µM) | 69.9 |
| N#CC[C@H](C1CCCC1)n1cc(-c2ncnc3[nH]ccc23)cn1 [ruxolitinib] + CC1(C)NC(=O)N(c2ccc([N+](=O)[O-])c(C(F)(F)F)c2)C1=O [nilutamide] (first compound 1 µM, partner dose 1 µM) | 55.4 |
| CC[C@]1(O)C[C@H]2CN(CCc3c([nH]c4ccccc34)[C@@](C(=O)OC)(c3cc4c(cc3OC)N(C=O)[C@H]3[C@@](O)(C(=O)OC)[C@H](OC(C)=O)[C@]5(CC)C=CCN6CC[C@]43[C@@H]65)C2)C1 [vincristine] + O=C(Nc1cccc(Cl)c1)Nc1ncc(CCNc2ncnc3ccsc23)s1 [SNS314] (first compound 0.0001 µM, partner dose 0.0008 µM) | 69.2 |
| Cc1cn(-c2cc(NC(=O)c3ccc(C)c(Nc4nccc(-c5cccnc5)n4)c3)cc(C(F)(F)F)c2)cn1 [nilotinib] + CC(C)(C)c1cnc(CSc2cnc(NC(=O)C3CCNCC3)s2)o1 [SNS-032] (first compound 0.2 µM, partner dose 0.01 µM) | 136 |
| COc1cc([C@@H]2c3cc4c(cc3[C@@H](O[C@@H]3O[C@@H]5CO[C@@H](C)O[C@H]5[C@H](O)[C@H]3O)[C@H]3COC(=O)[C@H]23)OCO4)cc(OC)c1O [etoposide] + NC(=O)Nc1cc(-c2cccc(F)c2)sc1C(=O)N[C@H]1CCCNC1 [AZD7762] (first compound 0.02 µM, partner dose 0.02 µM) | 44.6 |
| Cc1cc(Nc2cc(N3CCN(C)CC3)nc(Sc3ccc(NC(=O)C4CC4)cc3)n2)n[nH]1 [Tozasertib] + Cn1cncc1[C@@](N)(c1ccc(Cl)cc1)c1ccc2c(c1)c(-c1cccc(Cl)c1)cc(=O)n2C [tipifarnib] (first compound 0.006 µM, partner dose 0.01 µM) | 60.5 |
| Cc1ccc(Nc2nccc(N(C)c3ccc4c(C)n(C)nc4c3)n2)cc1S(N)(=O)=O [Pazopanib] + Cn1cncc1[C@@](N)(c1ccc(Cl)cc1)c1ccc2c(c1)c(-c1cccc(Cl)c1)cc(=O)n2C [tipifarnib] (first compound 0.4 µM, partner dose 0.01 µM) | 49.3 |
| Cc1cc(Nc2cc(N3CCN(C)CC3)nc(Sc3ccc(NC(=O)C4CC4)cc3)n2)n[nH]1 [Tozasertib] + Cc1ccc(NC(=O)c2cccc(N(C)C)c2)cc1NC(=O)c1ccc(O)cc1 [ZM336372] (first compound 0.006 µM, partner dose 2 µM) | 76.3 |
| CC[C@]1(O)C[C@H]2CN(CCc3c([nH]c4ccccc34)[C@@](C(=O)OC)(c3cc4c(cc3OC)N(C=O)[C@H]3[C@@](O)(C(=O)OC)[C@H](OC(C)=O)[C@]5(CC)C=CCN6CC[C@]43[C@@H]65)C2)C1 [vincristine] + CC1(C)NC(=O)N(c2ccc([N+](=O)[O-])c(C(F)(F)F)c2)C1=O [nilutamide] (first compound 0.0001 µM, partner dose 1 µM) | 101 |
| N#CC[C@H](C1CCCC1)n1cc(-c2ncnc3[nH]ccc23)cn1 [ruxolitinib] + CO[C@@H]1[C@H](N(C)C(=O)c2ccccc2)C[C@H]2O[C@]1(C)n1c3ccccc3c3c4c(c5c6ccccc6n2c5c31)C(=O)NC4 [Midostaurin] (first compound 1 µM, partner dose 0.08 µM) | 203 |
| CCCCCCCCCCCCCCCCCCOP(=O)([O-])OC1CC[N+](C)(C)CC1 [Perifosine] + COc1cc2c(Oc3ccc4[nH]c(C)cc4c3F)ncnc2cc1OCCCN1CCCC1 [cediranib] (first compound 0.4 µM, partner dose 0.4 µM) | 78.3 |
| N#CC[C@H](C1CCCC1)n1cc(-c2ncnc3[nH]ccc23)cn1 [ruxolitinib] + COc1cc2c(Oc3ccc4[nH]c(C)cc4c3F)ncnc2cc1OCCCN1CCCC1 [cediranib] (first compound 1 µM, partner dose 0.4 µM) | 93.6 |
| O=C(/C=C/c1cccnc1)NCCCCC1CCN(C(=O)c2ccccc2)CC1 + O=C(O)c1ccc(-c2c[nH]c3ncc(-c4ccccc4)cc23)cc1C1CCCC1 [GSK650394] (first compound 0.01 µM, partner dose 0.16 µM) | 532 |
| Cc1cc(Nc2cc(N3CCN(C)CC3)nc(Sc3ccc(NC(=O)C4CC4)cc3)n2)n[nH]1 [Tozasertib] + NCC(=O)Nc1ccc(-n2nc(C(F)(F)F)cc2-c2ccc3c(ccc4ccccc43)c2)cc1 [OSU03012] (first compound 0.006 µM, partner dose 1 µM) | 56.1 |
| Cc1cn(-c2cc(NC(=O)c3ccc(C)c(Nc4nccc(-c5cccnc5)n4)c3)cc(C(F)(F)F)c2)cn1 [nilotinib] + CO[C@@H]1[C@H](N(C)C(=O)c2ccccc2)C[C@H]2O[C@]1(C)n1c3ccccc3c3c4c(c5c6ccccc6n2c5c31)C(=O)NC4 [Midostaurin] (first compound 0.2 µM, partner dose 0.08 µM) | 86.5 |
| Cc1ccc(Nc2nccc(N(C)c3ccc4c(C)n(C)nc4c3)n2)cc1S(N)(=O)=O [Pazopanib] + CN(NC(=O)CC(=O)NN(C)C(=S)c1ccccc1)C(=S)c1ccccc1 [STA4783] (first compound 0.4 µM, partner dose 0.006 µM) | 88.7 |
| COc1cc([C@@H]2c3cc4c(cc3[C@@H](O[C@@H]3O[C@@H]5CO[C@@H](C)O[C@H]5[C@H](O)[C@H]3O)[C@H]3COC(=O)[C@H]23)OCO4)cc(OC)c1O [etoposide] + Cc1ccc(NC(=O)c2cccc(N(C)C)c2)cc1NC(=O)c1ccc(O)cc1 [ZM336372] (first compound 0.02 µM, partner dose 2 µM) | 115 |
| O=C(/C=C/c1cccnc1)NCCCCC1CCN(C(=O)c2ccccc2)CC1 + CN(NC(=O)CC(=O)NN(C)C(=S)c1ccccc1)C(=S)c1ccccc1 [STA4783] (first compound 0.01 µM, partner dose 0.006 µM) | 495 |

2 entries picked at random from those above, as already listed:

| SMILES | cleaved PARP positive nuclei fraction [%] |
| --- | --- |
| N#CC[C@H](C1CCCC1)n1cc(-c2ncnc3[nH]ccc23)cn1 [ruxolitinib] + Cc1ccc(NC(=O)c2cccc(N(C)C)c2)cc1NC(=O)c1ccc(O)cc1 [ZM336372] (first compound 1 µM, partner dose 2 µM) | 69.9 |
| O=C(/C=C/c1cccnc1)NCCCCC1CCN(C(=O)c2ccccc2)CC1 + CN(NC(=O)CC(=O)NN(C)C(=S)c1ccccc1)C(=S)c1ccccc1 [STA4783] (first compound 0.01 µM, partner dose 0.006 µM) | 495 |
